Experiment [1] concerns the target T1, YFPn-MED19a (Arabidopsis) (UniProt Q9FMP0).
T1 sequence: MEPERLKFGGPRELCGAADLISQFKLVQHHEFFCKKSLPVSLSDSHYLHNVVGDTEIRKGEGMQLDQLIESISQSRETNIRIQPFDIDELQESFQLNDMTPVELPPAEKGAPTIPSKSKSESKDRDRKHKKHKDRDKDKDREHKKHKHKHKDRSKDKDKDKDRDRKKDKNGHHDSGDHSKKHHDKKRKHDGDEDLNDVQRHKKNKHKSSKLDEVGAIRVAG
The experiment in a line: split reporter; BiFC with YFPc and YFPn fusions, transient expression in N. benthamiana, microscopy.

Another experiment has as its target T2, GFP-MED19a (Arabidopsis) (UniProt Q9FMP0).
T2 sequence: T1 sequence
The experiment in a line: co-IP; co-immunoprecipitation analysis between GFP-MED19a and MED6 and MED7, read by immunoblot.

These are yes or no findings as the source states them, for the method shown. Binding seen in cells or lysates may run through a third protein. A result given as binding can be weak or reduced; the word gives no strength. For some assays here: Sequences can lack the tags named with a protein.

Consider 2 substances from paper PMC4775043.

Regarding YFPc-HaRxL44 (Hpa (downy mildew)), in experiment [1], the binding entry was “binds”.

As to MED7, the binding result in the experiment with GFP-MED19a (Arabidopsis) was “binds”.
